These are yes or no findings as the source states them, for the method shown. In cells and extracts the contact can be indirect. Binding calls can cover weak binding; strength is not graded here.
Biological target: T1, receptor activator of nuclear factor kappa-Β (RANK), endogenous in RAW264.7 cells (mouse (endogenous in RAW264.7)) (UniProt O35305)
T1 sequence: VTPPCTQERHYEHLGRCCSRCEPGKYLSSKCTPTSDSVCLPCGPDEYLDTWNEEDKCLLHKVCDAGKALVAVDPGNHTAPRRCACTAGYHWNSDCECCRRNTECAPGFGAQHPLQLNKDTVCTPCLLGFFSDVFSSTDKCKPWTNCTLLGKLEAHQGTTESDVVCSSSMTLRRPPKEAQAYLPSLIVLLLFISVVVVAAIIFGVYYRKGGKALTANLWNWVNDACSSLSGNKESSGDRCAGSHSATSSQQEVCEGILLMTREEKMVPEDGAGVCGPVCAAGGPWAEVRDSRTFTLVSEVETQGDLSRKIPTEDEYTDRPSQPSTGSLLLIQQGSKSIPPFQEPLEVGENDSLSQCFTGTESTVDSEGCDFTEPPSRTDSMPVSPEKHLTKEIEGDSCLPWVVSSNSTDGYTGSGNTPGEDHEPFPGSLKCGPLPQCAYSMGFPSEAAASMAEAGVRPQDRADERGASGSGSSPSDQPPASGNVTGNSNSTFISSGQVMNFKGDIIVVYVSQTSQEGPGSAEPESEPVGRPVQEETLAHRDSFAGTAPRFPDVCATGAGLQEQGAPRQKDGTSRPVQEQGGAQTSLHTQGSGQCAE
Assay: pull-down; RANK immunoprecipitated from RAW264.7 lysate, held on protein A/G magnetic beads, washed, coincubated with 1 μg His-tagged RANKL or 1 μg RANKL and 10 μM FHb at room temperature for 60 min; washed with 50 mM Tris pH 7.5, 150 mM NaCl; immunoblot; both purified

The chains behind the UniProt entries cited, without tags or fusion partners. Where a name states a change or a piece, a line headed by the entry shows the natural chain unless it says otherwise.
UniProt O35235: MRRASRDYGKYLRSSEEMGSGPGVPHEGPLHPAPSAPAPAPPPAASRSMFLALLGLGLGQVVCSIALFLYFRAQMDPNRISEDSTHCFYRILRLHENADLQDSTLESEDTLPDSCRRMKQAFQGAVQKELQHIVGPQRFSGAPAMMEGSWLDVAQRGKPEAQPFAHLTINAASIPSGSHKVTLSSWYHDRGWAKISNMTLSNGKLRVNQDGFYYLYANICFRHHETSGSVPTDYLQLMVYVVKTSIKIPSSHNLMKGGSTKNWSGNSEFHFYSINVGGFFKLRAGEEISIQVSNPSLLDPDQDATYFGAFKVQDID

With “recombinant mouse RANKL with N-terminal 6 × His tag (from UniProt O35235) (ligand)” the binding was “binds”.

Reference: PMC7063196
